{"sequences": {"note": "Amino acid sequences for entries named in this document (tags omitted).", "UniProt Q9WTM5": "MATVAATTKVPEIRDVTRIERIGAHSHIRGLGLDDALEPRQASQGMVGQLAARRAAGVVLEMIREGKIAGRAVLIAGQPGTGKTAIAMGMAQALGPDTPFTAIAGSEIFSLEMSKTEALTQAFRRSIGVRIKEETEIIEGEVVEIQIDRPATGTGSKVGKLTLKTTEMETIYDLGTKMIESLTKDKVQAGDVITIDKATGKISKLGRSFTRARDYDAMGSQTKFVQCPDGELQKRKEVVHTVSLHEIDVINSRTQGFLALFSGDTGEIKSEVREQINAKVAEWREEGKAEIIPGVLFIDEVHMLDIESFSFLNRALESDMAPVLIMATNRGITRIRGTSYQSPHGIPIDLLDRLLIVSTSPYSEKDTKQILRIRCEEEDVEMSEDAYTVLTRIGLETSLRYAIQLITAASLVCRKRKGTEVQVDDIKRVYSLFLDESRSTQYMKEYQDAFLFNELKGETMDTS", "UniProt Q8CHK4": "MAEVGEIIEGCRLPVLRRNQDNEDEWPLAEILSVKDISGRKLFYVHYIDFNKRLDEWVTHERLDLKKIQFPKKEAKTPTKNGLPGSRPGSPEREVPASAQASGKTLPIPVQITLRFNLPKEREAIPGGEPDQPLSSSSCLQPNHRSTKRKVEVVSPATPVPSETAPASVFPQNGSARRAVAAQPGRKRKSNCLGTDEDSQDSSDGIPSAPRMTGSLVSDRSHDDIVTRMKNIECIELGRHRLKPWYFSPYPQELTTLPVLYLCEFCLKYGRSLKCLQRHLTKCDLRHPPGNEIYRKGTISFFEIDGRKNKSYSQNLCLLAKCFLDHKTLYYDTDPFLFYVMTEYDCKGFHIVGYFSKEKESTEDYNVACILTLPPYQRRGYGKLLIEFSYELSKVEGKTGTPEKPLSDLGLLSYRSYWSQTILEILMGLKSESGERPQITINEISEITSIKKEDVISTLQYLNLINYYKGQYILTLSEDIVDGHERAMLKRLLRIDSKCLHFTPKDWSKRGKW", "UniProt Q8BKX6": "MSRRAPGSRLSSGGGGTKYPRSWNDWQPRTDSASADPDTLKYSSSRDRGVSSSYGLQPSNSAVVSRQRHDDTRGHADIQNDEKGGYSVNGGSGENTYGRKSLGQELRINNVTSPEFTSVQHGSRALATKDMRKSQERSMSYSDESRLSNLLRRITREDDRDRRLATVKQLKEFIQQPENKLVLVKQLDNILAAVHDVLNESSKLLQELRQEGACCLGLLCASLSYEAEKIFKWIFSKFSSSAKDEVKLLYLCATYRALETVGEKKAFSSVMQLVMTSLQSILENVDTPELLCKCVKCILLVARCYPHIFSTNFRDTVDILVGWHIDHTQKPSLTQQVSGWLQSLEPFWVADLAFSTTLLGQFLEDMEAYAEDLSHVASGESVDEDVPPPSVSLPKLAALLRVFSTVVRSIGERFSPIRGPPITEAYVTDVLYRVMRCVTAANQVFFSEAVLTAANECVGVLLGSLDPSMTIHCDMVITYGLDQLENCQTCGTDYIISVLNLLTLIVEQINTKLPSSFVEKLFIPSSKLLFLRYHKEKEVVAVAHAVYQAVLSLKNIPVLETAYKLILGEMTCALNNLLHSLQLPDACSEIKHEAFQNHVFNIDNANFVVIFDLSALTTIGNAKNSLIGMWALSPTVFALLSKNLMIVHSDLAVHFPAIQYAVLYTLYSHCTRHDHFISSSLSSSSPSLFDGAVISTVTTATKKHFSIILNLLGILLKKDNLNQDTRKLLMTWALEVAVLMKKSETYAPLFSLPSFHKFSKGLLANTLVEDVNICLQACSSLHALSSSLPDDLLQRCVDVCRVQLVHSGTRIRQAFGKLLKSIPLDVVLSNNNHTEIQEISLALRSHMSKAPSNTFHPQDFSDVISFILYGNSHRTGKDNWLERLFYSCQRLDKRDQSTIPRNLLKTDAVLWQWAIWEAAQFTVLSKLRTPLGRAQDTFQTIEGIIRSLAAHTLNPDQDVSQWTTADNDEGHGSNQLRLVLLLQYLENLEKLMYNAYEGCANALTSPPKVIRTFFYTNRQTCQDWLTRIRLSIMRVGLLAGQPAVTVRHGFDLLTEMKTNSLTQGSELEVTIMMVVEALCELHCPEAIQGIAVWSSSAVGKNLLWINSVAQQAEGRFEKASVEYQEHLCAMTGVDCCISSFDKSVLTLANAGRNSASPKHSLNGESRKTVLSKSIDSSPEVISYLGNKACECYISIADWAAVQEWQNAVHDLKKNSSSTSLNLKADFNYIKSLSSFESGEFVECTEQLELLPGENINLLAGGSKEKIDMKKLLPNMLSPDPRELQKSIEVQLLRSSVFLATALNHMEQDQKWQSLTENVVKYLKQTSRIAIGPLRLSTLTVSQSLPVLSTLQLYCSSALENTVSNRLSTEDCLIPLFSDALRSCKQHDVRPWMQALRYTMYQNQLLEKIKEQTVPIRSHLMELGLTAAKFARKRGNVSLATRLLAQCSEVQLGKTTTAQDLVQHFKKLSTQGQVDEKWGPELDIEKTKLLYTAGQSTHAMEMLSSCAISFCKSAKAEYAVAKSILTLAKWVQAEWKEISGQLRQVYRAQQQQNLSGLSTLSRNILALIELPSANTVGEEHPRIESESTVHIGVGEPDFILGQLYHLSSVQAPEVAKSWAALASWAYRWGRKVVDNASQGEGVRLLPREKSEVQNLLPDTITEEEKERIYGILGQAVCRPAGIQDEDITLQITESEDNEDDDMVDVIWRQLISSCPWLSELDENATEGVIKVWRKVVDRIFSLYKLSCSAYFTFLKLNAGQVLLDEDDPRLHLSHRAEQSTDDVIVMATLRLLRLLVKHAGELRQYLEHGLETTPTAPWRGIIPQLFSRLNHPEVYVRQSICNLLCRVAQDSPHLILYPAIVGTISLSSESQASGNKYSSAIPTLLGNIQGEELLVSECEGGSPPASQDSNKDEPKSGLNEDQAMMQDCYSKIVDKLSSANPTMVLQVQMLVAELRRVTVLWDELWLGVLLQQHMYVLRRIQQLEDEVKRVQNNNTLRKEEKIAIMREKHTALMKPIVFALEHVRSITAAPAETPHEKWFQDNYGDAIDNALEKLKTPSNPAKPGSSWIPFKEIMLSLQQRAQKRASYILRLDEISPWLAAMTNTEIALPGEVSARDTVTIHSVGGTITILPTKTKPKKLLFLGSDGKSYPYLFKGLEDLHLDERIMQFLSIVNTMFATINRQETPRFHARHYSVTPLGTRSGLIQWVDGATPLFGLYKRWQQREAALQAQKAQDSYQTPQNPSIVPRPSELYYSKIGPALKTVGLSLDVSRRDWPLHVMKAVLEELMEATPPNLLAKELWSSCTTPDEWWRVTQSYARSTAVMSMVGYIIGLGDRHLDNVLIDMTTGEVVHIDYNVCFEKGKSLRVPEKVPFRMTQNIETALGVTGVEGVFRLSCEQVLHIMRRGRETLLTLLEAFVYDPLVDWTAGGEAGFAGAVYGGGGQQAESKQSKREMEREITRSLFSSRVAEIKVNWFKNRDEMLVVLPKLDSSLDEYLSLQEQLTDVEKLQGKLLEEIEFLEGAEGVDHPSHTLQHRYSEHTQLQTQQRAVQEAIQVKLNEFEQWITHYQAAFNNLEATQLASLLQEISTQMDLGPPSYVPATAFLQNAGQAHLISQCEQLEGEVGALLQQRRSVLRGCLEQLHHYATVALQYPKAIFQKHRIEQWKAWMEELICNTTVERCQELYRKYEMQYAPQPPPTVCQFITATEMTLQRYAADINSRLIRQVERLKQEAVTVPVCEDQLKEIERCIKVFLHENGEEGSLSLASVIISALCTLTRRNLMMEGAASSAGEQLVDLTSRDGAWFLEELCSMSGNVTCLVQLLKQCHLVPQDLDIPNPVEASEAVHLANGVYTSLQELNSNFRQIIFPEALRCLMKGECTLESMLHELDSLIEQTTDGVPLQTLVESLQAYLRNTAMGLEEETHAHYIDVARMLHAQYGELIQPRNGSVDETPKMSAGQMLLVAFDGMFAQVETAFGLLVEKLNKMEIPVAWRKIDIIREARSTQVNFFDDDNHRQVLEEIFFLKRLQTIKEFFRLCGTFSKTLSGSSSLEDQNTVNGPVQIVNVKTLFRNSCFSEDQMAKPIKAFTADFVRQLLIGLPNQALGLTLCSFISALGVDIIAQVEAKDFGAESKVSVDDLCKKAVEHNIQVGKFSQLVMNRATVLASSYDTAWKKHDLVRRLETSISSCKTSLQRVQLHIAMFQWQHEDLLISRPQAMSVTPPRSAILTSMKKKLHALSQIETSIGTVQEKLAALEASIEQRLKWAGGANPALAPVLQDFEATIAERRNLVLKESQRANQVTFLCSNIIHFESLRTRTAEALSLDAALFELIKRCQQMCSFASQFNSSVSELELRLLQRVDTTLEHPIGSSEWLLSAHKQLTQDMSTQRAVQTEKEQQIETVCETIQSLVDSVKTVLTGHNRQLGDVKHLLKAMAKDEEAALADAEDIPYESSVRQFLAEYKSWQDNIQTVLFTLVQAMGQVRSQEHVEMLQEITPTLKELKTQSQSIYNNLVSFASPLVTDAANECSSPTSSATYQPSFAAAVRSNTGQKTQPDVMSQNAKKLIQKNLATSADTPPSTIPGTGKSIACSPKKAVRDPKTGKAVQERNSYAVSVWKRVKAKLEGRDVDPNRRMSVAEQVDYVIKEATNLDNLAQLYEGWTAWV"}, "source": "paper PMC9519968", "molecular_target": "RUVBL2 (mouse (endogenous in mESCs)) (UniProt Q9WTM5)", "assay": "affinity purification with mass spectrometry; RUVBL2 ChIP-MS: mESCs cross-linked with 1% formaldehyde, chromatin digested with MNase and sonicated, antibody and Protein G magnetic beads, washes with 500 mM NaCl and 250 mM LiCl buffers; cutoff IP/GFP >= 1.49 and IP/Input >= 0.5", "note": "Results are given in words; binding and its absence hold for the method and conditions named. In cells and extracts the contact can be indirect. A yes stands for co-enrichment or nearness to the bait. Other partners may have been found.", "data": [{"substance": "TIP60 (from UniProt Q8CHK4 1-513)", "values": [{"measurement": "binding", "result": "binds"}]}, {"substance": "SMG1 (from UniProt Q8BKX6 1-3658)", "values": [{"measurement": "binding", "result": "binds"}]}]}
